These are yes or no findings as the source states them, for the method shown. In cells and extracts the contact can be indirect. Here binding means that the protein was enriched with, or labelled near, the bait; the list need not be complete.
T1: IFI35 (human (endogenous in HeLa)) (UniProt P80217)
T1 sequence: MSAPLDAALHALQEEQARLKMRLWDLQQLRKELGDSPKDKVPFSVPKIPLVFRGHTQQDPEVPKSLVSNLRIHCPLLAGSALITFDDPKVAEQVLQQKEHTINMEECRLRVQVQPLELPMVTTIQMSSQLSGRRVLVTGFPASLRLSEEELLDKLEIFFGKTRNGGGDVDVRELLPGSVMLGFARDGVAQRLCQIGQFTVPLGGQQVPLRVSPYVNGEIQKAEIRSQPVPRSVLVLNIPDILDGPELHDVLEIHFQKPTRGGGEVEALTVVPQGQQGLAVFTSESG

T2: NMI (human (endogenous in HeLa)) (UniProt Q13287)
T2 sequence: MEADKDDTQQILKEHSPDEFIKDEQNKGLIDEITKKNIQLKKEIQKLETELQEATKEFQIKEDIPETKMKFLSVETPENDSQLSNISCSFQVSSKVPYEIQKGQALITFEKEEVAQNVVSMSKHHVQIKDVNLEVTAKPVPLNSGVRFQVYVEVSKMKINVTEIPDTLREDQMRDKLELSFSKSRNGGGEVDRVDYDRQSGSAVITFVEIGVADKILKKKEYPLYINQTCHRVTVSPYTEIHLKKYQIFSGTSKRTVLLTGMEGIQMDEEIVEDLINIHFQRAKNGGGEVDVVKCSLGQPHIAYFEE

B1: NMI (protein, UniProt Q13287 1-307)
chain: MEADKDDTQQILKEHSPDEFIKDEQNKGLIDEITKKNIQLKKEIQKLETELQEATKEFQIKEDIPETKMKFLSVETPENDSQLSNISCSFQVSSKVPYEIQKGQALITFEKEEVAQNVVSMSKHHVQIKDVNLEVTAKPVPLNSGVRFQVYVEVSKMKINVTEIPDTLREDQMRDKLELSFSKSRNGGGEVDRVDYDRQSGSAVITFVEIGVADKILKKKEYPLYINQTCHRVTVSPYTEIHLKKYQIFSGTSKRTVLLTGMEGIQMDEEIVEDLINIHFQRAKNGGGEVDVVKCSLGQPHIAYFEE
B2: IFI35 (protein, UniProt P80217 1-286)
chain: MSAPLDAALHALQEEQARLKMRLWDLQQLRKELGDSPKDKVPFSVPKIPLVFRGHTQQDPEVPKSLVSNLRIHCPLLAGSALITFDDPKVAEQVLQQKEHTINMEECRLRVQVQPLELPMVTTIQMSSQLSGRRVLVTGFPASLRLSEEELLDKLEIFFGKTRNGGGDVDVRELLPGSVMLGFARDGVAQRLCQIGQFTVPLGGQQVPLRVSPYVNGEIQKAEIRSQPVPRSVLVLNIPDILDGPELHDVLEIHFQKPTRGGGEVEALTVVPQGQQGLAVFTSESG

How the values were obtained:
[1] = target: T1, IFI35 (human (endogenous in HeLa)); assay: affinity purification with mass spectrometry; immunoprecipitation of the endogenous bait from control or IFN-stimulated HeLa lysate (250 μg protein in SEC buffer) with antibody overnight at 4 °C, protein A/G magnetic beads, on-bead trypsin digestion, label-free quantitation; IgG as control
[2] = target: T2, NMI (human (endogenous in HeLa)); assay: as above

Binder	binding [1]	binding [2]
B1	binds	–
B2	–	binds
